The text below walks through data of article PMC8027631.

Sequences of proteins named here, by UniProt entry; tags and fusion partners are left off. Residues count along the entry.
UniProt Q14974: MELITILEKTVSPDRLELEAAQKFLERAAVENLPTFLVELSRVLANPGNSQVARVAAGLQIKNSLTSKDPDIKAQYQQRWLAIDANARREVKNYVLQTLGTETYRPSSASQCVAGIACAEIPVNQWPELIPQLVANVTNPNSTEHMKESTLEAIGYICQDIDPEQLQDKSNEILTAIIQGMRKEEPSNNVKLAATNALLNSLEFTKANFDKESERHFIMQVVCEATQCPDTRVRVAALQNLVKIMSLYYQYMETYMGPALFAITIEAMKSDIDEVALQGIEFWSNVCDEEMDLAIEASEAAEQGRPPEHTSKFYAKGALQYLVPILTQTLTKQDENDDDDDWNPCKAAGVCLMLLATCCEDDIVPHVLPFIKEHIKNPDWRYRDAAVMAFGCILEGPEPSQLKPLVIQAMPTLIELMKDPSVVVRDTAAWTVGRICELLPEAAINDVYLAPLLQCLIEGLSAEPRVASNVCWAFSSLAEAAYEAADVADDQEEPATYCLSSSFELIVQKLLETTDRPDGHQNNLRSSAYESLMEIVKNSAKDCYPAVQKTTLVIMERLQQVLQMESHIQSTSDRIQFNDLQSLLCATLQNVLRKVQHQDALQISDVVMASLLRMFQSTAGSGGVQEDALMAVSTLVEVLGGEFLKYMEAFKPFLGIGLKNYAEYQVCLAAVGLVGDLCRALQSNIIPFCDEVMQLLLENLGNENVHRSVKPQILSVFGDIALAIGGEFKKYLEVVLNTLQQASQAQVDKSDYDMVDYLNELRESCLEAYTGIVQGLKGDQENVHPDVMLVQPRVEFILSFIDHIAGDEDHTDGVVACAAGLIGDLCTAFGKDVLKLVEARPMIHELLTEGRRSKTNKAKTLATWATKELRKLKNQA
UniProt Q9NZQ7, residues 19-290: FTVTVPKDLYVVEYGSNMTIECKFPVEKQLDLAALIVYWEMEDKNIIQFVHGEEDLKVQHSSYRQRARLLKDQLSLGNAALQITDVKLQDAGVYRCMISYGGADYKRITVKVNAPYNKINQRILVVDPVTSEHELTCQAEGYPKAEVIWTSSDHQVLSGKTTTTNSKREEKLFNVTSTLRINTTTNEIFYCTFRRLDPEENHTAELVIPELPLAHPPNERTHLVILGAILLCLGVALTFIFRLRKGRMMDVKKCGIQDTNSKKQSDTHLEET

One experiment deals with myc-tagged KPNB1 (UniProt Q14974). Kind of experiment: co-IP; myc-tagged KPNB1 and Flag-tagged PD-L1 co-expressed in HEK 293T cells (legend: HEK293T and Hela); KPNB1 immunoprecipitates blotted for PD-L1.
Experiment [1] concerns the target programmed cell death ligand 1 (PD-L1), endogenous (human (endogenous in H1299 and HCC827)) (UniProt Q9NZQ7). Kind of experiment: co-IP; endogenous proteins in H1299 and HCC827 lysates; anti-KPNB1 and anti-PD-L1 antibodies or normal IgG at 4 °C overnight, protein A/G beads, western blot. A general note: A western blot detects proteins with antibodies after separation by electrophoresis.

Results are given in words; binding and its absence hold for the method and conditions named. In cells and extracts the contact can be indirect. Some entries that bind do so weakly or less than the wild type.

Regarding “Flag-tagged PD-L1 (programmed cell death ligand 1) (from UniProt Q9NZQ7 19-290)”, the binding result with myc-tagged KPNB1 is “binds”.

Consider “Karyopherin β1 (KPNB1), endogenous (from UniProt Q14974 1-876)”, for which, in experiment [1], the binding entry was “binds”.
